Assay results: PubChem BioAssay AID624246 (National Center for Advancing Translational Sciences (NCATS), 2012)
The whole screen tested about 370,000 compounds, of which about 100 (0.027%) were called active. The shares of active, inactive and inconclusive entries below differ from those in the screen. Calls come from the whole dose curve; as a rule, active = well fitted inhibition curve with a large enough effect in the polarisation, with a control signal flat; inconclusive = small, poorly fitted or top-dose-only effect, or effect the other way, or a change in a side signal; inactive = no such curve, though single readings can be large or run the other way; the % refers to the polarisation. Where the call is inconclusive, the potency comes from a doubtful curve fit. A note “side channel” means that the fit belongs to a control or component signal, not to the main read-out.

The chains behind the UniProt entries cited, without tags or fusion partners.
UniProt P11308, whole entry, looked up: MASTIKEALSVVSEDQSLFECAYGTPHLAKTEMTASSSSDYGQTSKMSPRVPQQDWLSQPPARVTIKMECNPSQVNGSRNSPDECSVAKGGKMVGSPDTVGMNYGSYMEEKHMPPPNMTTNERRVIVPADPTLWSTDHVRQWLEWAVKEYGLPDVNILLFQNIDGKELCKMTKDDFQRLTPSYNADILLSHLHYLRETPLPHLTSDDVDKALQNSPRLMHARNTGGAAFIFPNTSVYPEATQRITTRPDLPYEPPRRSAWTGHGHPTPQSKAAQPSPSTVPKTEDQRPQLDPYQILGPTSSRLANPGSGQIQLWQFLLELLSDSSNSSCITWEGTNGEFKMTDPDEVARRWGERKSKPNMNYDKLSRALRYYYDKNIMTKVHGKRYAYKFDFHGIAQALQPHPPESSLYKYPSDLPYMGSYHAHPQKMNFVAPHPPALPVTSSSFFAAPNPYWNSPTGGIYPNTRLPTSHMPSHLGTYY

target: Transcriptional regulator ERG (Homo sapiens) (UniProt P11308); assay: qHTS for Small Molecule Inhibitors of the ERG Ets/DNA interaction; settings: fluorescence polarization, His-ERG Ets domain / labelled DNA; series mostly up to 76.9 µM
Description: The Ets family of proteins is a family of ~30 conserved transcription factors defined by the presence of an ~85 amino acid domain referred to as the Ets domain, which mediates sequence-specific DNA binding to a core DNA element GGAA/T.The Ets family member ERG has been linked to several neoplasms. […] More extensive studies of the effects of over-expression of ERG in prostate cells have recently been carried out and have shown that over-expression of ERG results in increased invasion. […] We will carry out a high throughout screen to identify inhibitors of the interaction between ERG and DNA using a fluorescence polarization (FP) assay with a His-tagged ERG Ets domain and fluorescently-labeled DNA probes to develop small molecule inhibitors of this interaction as probes to test this hypothesis and lay the groundwork for the development of targeted therapies against ERG. NIH Molecular Libraries Probe Production Network [MLPCN] NIH Chemical Genomics Center [NCGC] Grant: NS066464 PI Name: John Bushweller, University of Virgina
1.5 ul of protein solution (1 uM ERG domain in 300mM KCl, 50mM Tris-HCl, 1mM EDTA, 1mM DTT, pH 7.5); 20 nl Control plate and compound library plate; 1.5 ul mixture of 5 nM Fluorescein-DNA and 100nM Texas-615-DNA solution in same buffer as above solution; measure fluorescence polarization sequentially for fluorescein (Excitation = 480 nm, Emission = 535s, 535p nm) and Texas red (Excitation = 555 nm, Emission = 632s, 632p nm).
Potency is the fitted concentration of half-maximal effect.

How did the Potency turn out when `CCN(CC)CCNc1ccc(CO)c2sc3ccccc3c(=O)c12` was run?
Its Potency is “inactive”.

Which Potency does the source give for `N#Cc1c(N)sc(=S)c2c1CCCCC2` here?
Its Potency is inconclusive: 100 µM [inhibitor, single point].

Which Potency does the source give for `CCc1ccccc1NC(=O)c1cc(S(=O)(=O)N2CCc3ccccc32)ccc1F` here?
Its Potency is “inactive”.

With `COCCNC(=O)C(OC(=O)C1=Cc2ccccc2OC1)C(C)C` (stereo not given) as the compound, how does the Potency read?
The Potency was inconclusive: 50.1 µM [inhibitor, single point].

`COc1cc(/C=c2\s/c(=C(/C#N)C(=O)N3CCCC3)n(-c3ccccc3)c2=O)ccc1O` was tested. Which Potency did it give?
Its Potency is inconclusive: 2.82 µM [fluorescent, side channel, partial curve, poor fit].

Which Potency does the source give for `CC(=O)Nc1cnc(NC(=O)c2cccc(F)c2)cc1C` here?
Its Potency is “inactive”.

`COc1ccc(C2CC(=O)N3C(=C2C#N)SCC3(O)c2ccccc2)cc1` (stereo not given) was tested. Which Potency did it give?
Its Potency is inconclusive: 35.5 µM [fluorescent, side channel, partial curve, poor fit].

With `Cc1ccc(OCCn2cc(C(=O)c3cccs3)c3ccccc32)cc1` as the compound, how does the Potency read?
The Potency was inconclusive: 50.1 µM [quencher, side channel, single point].

How did the Potency turn out when `COc1ccccc1CNC(=S)Nc1ccc(S(N)(=O)=O)cc1` was run?
Its Potency is inconclusive: 11.2 µM [inhibitor, single point].

For `Nc1nc(NCCO)nc(N2CCCCCC2)c1[N+](=O)[O-]`, which Potency is on record?
The Potency was “inactive”.

Which Potency does the source give for `CC(C)Oc1ccc(CN2CCc3nc(Nc4ccc5c(c4)OCCO5)ncc3C2)cc1` here?
The Potency was “inactive”.

For `CN(C)N=Nc1ccc(S(=O)(=O)NC(Cc2ccccc2)C(=O)O)cc1` (stereo not given), which Potency is on record?
The Potency was inconclusive: 28.2 µM [inhibitor, partial curve, poor fit].

With `C#CCOCCOCCOCCNc1nc(N2CCN(C(=O)CCCCCCCCCCNC(=O)[C@H]([C@@H](C)CC)n3cc(CCCCN=C(N)N)nn3)CC2)nc(N2CCN(C(=O)CCCCCCCCCCNC(=O)[C@@H]([C@H](C)O)n3cc(C)nn3)CC2)n1` as the compound, how does the Potency read?
Its Potency is “inactive”.

`O=C(C1CCN(Cc2ccc(F)cc2)CC1)N1CCN(C/C=C/c2ccccc2)CC1` was tested. Which Potency did it give?
Its Potency is inconclusive: 50.1 µM [inhibitor, single point].

`Cc1ccc(NC(=S)NC(=O)c2cncc(Br)c2)cc1Cl` was tested. Which Potency did it give?
Its Potency is inconclusive: 7.94 µM [inhibitor, partial curve, poor fit].

For `CC1CCN(c2nc(-c3ccc(C(C)(C)C)cc3)nc3ccccc23)CC1`, which Potency is on record?
Its Potency is “inactive”.

For `N#C/C(=C\c1cccs1)C(=O)c1ccccc1Cl`, which Potency is on record?
Its Potency is “inactive”.

For `C=CCn1c(=O)c2c(nc(-c3ccc(S(=O)(=O)O)cc3)n2C)n(C)c1=O`, which Potency is on record?
Its Potency is inconclusive: 3.98 µM [inhibitor, partial curve, poor fit].

With `N#CC1C(=O)c2ccccc2C1c1ccccc1` (stereo not given) as the compound, how does the Potency read?
Its Potency is “inactive”.

With `CC(CCc1ccc(O)cc1)N1CCC(Oc2ccc(C(=O)N3CCCC3)cc2)CC1` (stereo not given) as the compound, how does the Potency read?
The Potency was “inactive”.

`c1ccc(Nc2ncnc3[nH]ncc23)cc1` was tested. Which Potency did it give?
The Potency was inconclusive: 39.8 µM [inhibitor, partial curve, poor fit].

With `Cc1ccc(C(=O)NCC(=O)NCCCc2ccccc2)s1` as the compound, how does the Potency read?
The Potency was inconclusive: 6.31 µM [inhibitor, partial curve, poor fit].

Which Potency does the source give for `O=C1CCCC(O)=C1N=Nc1c(Cl)cc(C(F)(F)F)cc1Cl` here?
Its Potency is inconclusive: 35.5 µM [fluorescent, side channel, partial curve].

`N#C/C(=C/c1ccc(N2CCCCC2)o1)C(=O)Nc1ccc2ccccc2c1` was tested. Which Potency did it give?
The Potency was inconclusive: 35.5 µM [inhibitor, single point].

`Cc1cccc(OCc2ccc(C(=O)N3CCOCC3)o2)c1` was tested. Which Potency did it give?
Its Potency is inconclusive: 6.31 µM [inhibitor, partial curve, poor fit].

With `CCOc1ccc(CNC(=O)CN2C(=O)C(c3ccccc3)Oc3cccnc32)cc1` (stereo not given) as the compound, how does the Potency read?
The Potency was “inactive”.

`CC(=O)Nc1ccc(CCCCc2ccc(NC(C)=O)cc2)cc1` was tested. Which Potency did it give?
Its Potency is inconclusive: 50.1 µM [inhibitor, single point].

`Cc1cc(O)ccc1N=Cc1c(C(F)(F)F)[nH][nH]c1=O` was tested. Which Potency did it give?
Its Potency is active: 6.31 µM.

For `CCN(CC)C(=O)CSC(Nc1cccc(F)c1)=C(C#N)C#N`, which Potency is on record?
The Potency was inconclusive: 50.1 µM [fluorescent, side channel, single point].

For `CCN(CC)CCOC(=O)C(c1ccccc1)c1ccccc1`, which Potency is on record?
The Potency was “inactive”.

How did the Potency turn out when `COc1ccc(-c2cc(C(=O)O)no2)cc1` was run?
Its Potency is inconclusive: 31.6 µM [fluorescent, side channel, partial curve, poor fit].

Which Potency does the source give for `O=C(CC1SCCNC1=O)Nc1ccccc1Cl` (stereo not given) here?
Its Potency is inconclusive: 2.51 µM [quencher, side channel, full curve, poor fit].

Which Potency does the source give for `O=C(Cc1ccc(Cl)cc1)Nc1cccc(C(=O)Nc2ccccc2C(=O)O)c1` here?
The Potency was inconclusive: 44.7 µM [inhibitor, single point].

`C/C=N\NC(=O)CNC(=O)CNC(=O)c1ccccc1` was tested. Which Potency did it give?
The Potency was active: 35.5 µM.

For `CC(=O)c1cccc(NC(=O)c2cc(-c3ccco3)nc3ccccc23)c1`, which Potency is on record?
The Potency was “inactive”.

Which Potency does the source give for `CCn1cc(C(=O)NCc2ccc(Cl)cc2)c(=O)c2cc(S(=O)(=O)N3CCOCC3)ccc21` here?
Its Potency is inconclusive: 7.08 µM [inhibitor, full curve, poor fit].

With `COc1ccc(-n2c(=O)c3c4c(sc3n(Cc3ccc(C(C)(C)C)cc3)c2=O)CCC4)c(OC)c1` as the compound, how does the Potency read?
Its Potency is inconclusive: 28.2 µM [inhibitor, partial curve, poor fit].

For `COc1ccc(NC(=O)CN(C)S(=O)(=O)c2ccc3c(c2)c(=O)n(C)c(=O)n3C)cc1`, which Potency is on record?
The Potency was inconclusive: 1.58 µM [quencher, side channel, full curve, poor fit].

For `CCn1c2ccccc2c2cc(NC(=O)COc3cc(C)ccc3C)ccc21`, which Potency is on record?
The Potency was inconclusive: 50.1 µM [inhibitor, single point].

Which Potency does the source give for `COc1ccc([C@@H]2CC(=O)c3c(O)cc(O[C@@H]4OC(CO[C@@H]5OC(C)[C@H](O)[C@H](O)C5O)[C@@H](O)[C@@H](O)C4O)cc3O2)cc1O` (stereo not given in full) here?
The Potency was inconclusive: 11.2 µM [inhibitor, partial curve, poor fit].

Which Potency does the source give for `CC(OC(=O)c1cc(=O)[nH]c2ccccc12)C(=O)NCc1ccccc1` (stereo not given) here?
The Potency was inconclusive: 11.2 µM [inhibitor, single point].

For `CC(=O)Oc1ccc2c(c1)Oc1cc(OC(C)=O)ccc1C21OC(=O)c2ccccc21`, which Potency is on record?
The Potency was inconclusive: 35.5 µM [fluorescent, side channel, partial curve].

With `O=C1c2ccccc2C(=O)c2c(NCc3cccnc3)cccc21` as the compound, how does the Potency read?
The Potency was “inactive”.

Which Potency does the source give for `COc1ccc(OC)c2c1C(=O)c1ccccc1C2=O` here?
The Potency was active: 31.6 µM.

With `COc1ccccc1/C=N\Nc1ccccc1[N+](=O)[O-]` as the compound, how does the Potency read?
Its Potency is inconclusive: 11.2 µM [inhibitor, single point].

Which Potency does the source give for `Cc1ccc(-c2cc(-c3ccccc3Cl)[nH]n2)c(O)c1` here?
The Potency was “inactive”.

With `CC(=O)N1c2ccc(S(=O)(=O)N3CCC(C(=O)Nc4cccc(C(F)(F)F)c4)CC3)cc2CC1C` (stereo not given) as the compound, how does the Potency read?
Its Potency is “inactive”.

`COCCNC(=O)/C(C#N)=C/c1c(N2CCN(c3cccc(Cl)c3)CC2)nc2c(C)cccn2c1=O` was tested. Which Potency did it give?
Its Potency is inconclusive: 11.2 µM [inhibitor, partial curve, poor fit].

For `COc1ccc(C2NC(=S)NC(C)=C2C(=O)Nc2ccccn2)cc1` (stereo not given), which Potency is on record?
Its Potency is inconclusive: 28.2 µM [inhibitor, single point].

For `COc1ccccc1NC(=O)Nc1ccc(Cl)c(S(=O)(=O)Nc2ccccc2OC)c1`, which Potency is on record?
Its Potency is “inactive”.

`O=C(CSc1nnc(COc2ccccc2)o1)Nc1ccc(F)cc1` was tested. Which Potency did it give?
Its Potency is “inactive”.

With `COc1cc(CNc2ccc(CNc3ncn[nH]3)cc2)ccc1OCC(=O)NC(C)(C)C` as the compound, how does the Potency read?
The Potency was inconclusive: 44.7 µM [inhibitor, single point].

`Cc1ccc(C(=O)N[C@H](C(=O)Nc2ccc(F)cc2)C(C)C)cc1` was tested. Which Potency did it give?
Its Potency is inconclusive: 0.794 µM [inhibitor, full curve, poor fit].

Which Potency does the source give for `CC1CCCN(C(=S)SCC(=O)c2cc(Br)cc(Br)c2O)C1` (stereo not given) here?
Its Potency is inconclusive: 50.1 µM [fluorescent, side channel, single point].

`Cc1ccc(S(=O)(=O)N2CCC(C)CC2)c([N+](=O)[O-])c1` was tested. Which Potency did it give?
Its Potency is inconclusive: 25.1 µM [inhibitor, partial curve, poor fit].

For `C/C(=N\N=C1\NC(=O)C(CC(=O)Nc2ccc(C)c(Cl)c2)S1)C(C)(C)C` (stereo not given), which Potency is on record?
Its Potency is inconclusive: 4.47 µM [quencher, side channel, full curve].

With `Cc1ccc(S(=O)(=O)c2cnc(SCC(=O)Nc3ccc4c(c3)OCCO4)[nH]c2=O)cc1C` as the compound, how does the Potency read?
Its Potency is “inactive”.

With `Cc1noc(C)c1COC(=O)C1CCN(C(=O)c2ccc(Cl)cc2)CC1` as the compound, how does the Potency read?
Its Potency is inconclusive: 11.2 µM [inhibitor, single point].

For `CCN(CC)c1ccc(C(=C2C=CC(=[N+](CC)CC)C=C2)c2ccc(N(CC)CC)cc2)cc1`, which Potency is on record?
The Potency was inconclusive: 3.55 µM [inhibitor, full curve, poor fit].

`CN(C)/C=C/C(=O)c1cccc(Cl)c1` was tested. Which Potency did it give?
The Potency was “inactive”.

How did the Potency turn out when `COc1ccc2c3c(cccc13)C(=O)CC2` was run?
The Potency was active: 28.2 µM.

Which Potency does the source give for `Oc1ccc(NCc2ccccc2OCc2ccccc2)cc1` here?
The Potency was inconclusive: 200 µM [inhibitor, single point].

For `Cc1ccccc1C(=O)N/N=C1/SCC(=O)N1Cc1ccccc1`, which Potency is on record?
The Potency was inconclusive: 14.1 µM [inhibitor, partial curve, poor fit].

How did the Potency turn out when `O=C(Nc1ncc(Cc2ccccc2Cl)s1)c1ccc(-c2cccc([N+](=O)[O-])c2)o1` was run?
The Potency was “inactive”.

`Cc1cc(C)cc(CC(Cc2nc3ccccc3[nH]2)c2nc3ccccc3[nH]2)c1` (stereo not given) was tested. Which Potency did it give?
The Potency was inconclusive: 12.6 µM [fluorescent, side channel, single point].
